Data published in patent US20070056058A1 (TARGETED GROWTH, published 2007).
No constants are given. Whether binding was seen depends on the method and setting. Some entries that bind do so weakly or less than the wild type. Where a sequence is shown, tags or fusion partners need not be part of it.

Biological target: T1, Arabidopsis cyclin D2;1 (AtcyclinD2;1), FLAG tagged (Arabidopsis) (UniProt P42752)
T1 sequence: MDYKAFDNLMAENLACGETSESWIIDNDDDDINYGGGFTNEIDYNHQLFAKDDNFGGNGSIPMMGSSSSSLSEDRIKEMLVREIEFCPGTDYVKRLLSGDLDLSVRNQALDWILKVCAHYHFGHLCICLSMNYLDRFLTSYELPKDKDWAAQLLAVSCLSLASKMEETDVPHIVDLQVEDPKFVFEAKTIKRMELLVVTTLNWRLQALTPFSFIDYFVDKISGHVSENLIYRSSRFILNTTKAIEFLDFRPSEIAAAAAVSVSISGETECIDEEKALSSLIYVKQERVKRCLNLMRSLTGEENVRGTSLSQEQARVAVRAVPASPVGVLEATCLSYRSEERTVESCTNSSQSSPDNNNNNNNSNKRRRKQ
Test: in vitro binding, graded (column Cyclin binding)

B1: BnKRP1 wild type (Brassica napus Krp1), construct BnKrp #461 (other, not shown: small tags and cut ends)
chain: MVRKCRKTKGTVGASSTYMQLRSRRIVYRSEKASSSSSSCCASNNNGVIDLEEERDGETETSSCRRSSKRKLFENLREKESMENSQQIVAGFDSAVKESSDCCCSRRTSLSTTEEKGKSATEQPPTAVEIEDFFVEAEKQLHDNFKKKYNFDFEKEKPLEGRYEWVKL
With B1 the binding was “binds”.
